Assay results reported in PubChem BioAssay AID282 (DTP/NCI, 2004).
The list is a part of this screen's results and no random one: it is rich in T/C values a quarter to a half above the control, in often repeated tests (any T/C) and in doses without a T/C. Further doses and runs are listed elsewhere. T/C gives the treated animals as a percentage of the vehicle group. Some entries give survivors of the animals treated and no T/C: the source holds a T/C of zero for them, seemingly a mark for toxic or unscored doses. Some doses without a T/C left all or most animals alive at the check, yet need not have been tolerated: the source hardly ever lists a survival T/C far under the control, and the zero likely stands for such cases as well. Counts of survivors are from the toxicity check (mostly the fifth day) where no day follows; animals may have died later. Schedules are NCI's codes, read here as Q, the interval in days (D) or hours (H), X, the number of doses. Some schedules carry Z or #; the key to these is not given. For survival time, this PubChem deposit counts one and a half times the control or more as active, and values a quarter to a half above the control carry no call in these data; other NCI protocols may use other cut-offs. Some doses were run more than once; the results are listed from low to high. Some T/C values are followed by the survivors on the day toxicity was checked, most often the fifth; without a count, all were alive then.

Tested on: BDF1 mice, L1210 terephthalanilide-resistant leukemia ip, survival T/C
Test: NCI In Vivo Anticancer Drug Screen. Data for tumor model L1210 Leukemia resistant to A Terephthalanilide; NSC 38280 (intraperitoneal) in B6D2F1 (BDF1) mice
Details: T/C endpoint: mean survival time, higher T/C = longer survival
Method: The antitumor activity of compounds was measured in mice bearing transplantable tumors. Survival or tumor size were measured and the results are expressed as the measurement made in the treated group (T) divided by the measurement made in the vehicle treated control group (C). The tumor model used in this assay is L1210 Leukemia resistant to A Terephthalanilide; NSC 38280 (intraperitoneal) in B6D2F1 (BDF1) mice

Structure (SMILES): CSc1ncnc2c1ncn2C1OC(CO)C(O)C1O (configuration not stated)
- T/C (dose: 5.0 mg/kg/injection, schedule: Q01DX010 (ip), vehicle: saline): 126 % of control
- T/C (dose: 10.0 mg/kg/injection, schedule: Q01DX010 (ip), vehicle: saline): 141 % of control
- T/C (dose: 11.0 mg/kg/injection, schedule: Q01DX Z (ip), vehicle: saline): 137 % of control
- T/C (dose: 12.5 mg/kg/injection, schedule: Q01DX010 (ip), vehicle: saline): 148 % of control
- T/C (dose: 22.0 mg/kg/injection, schedule: Q01DX Z (ip), vehicle: saline): 147 % of control
- survivor count (dose: 32.0 mg/kg/injection, schedule: Q01DX010 (ip), vehicle: saline): 5 of 6
- T/C (dose: 44.0 mg/kg/injection, schedule: Q01DX Z (ip), vehicle: saline): 138 % of control
- survivor count (dose: 100.0 mg/kg/injection, schedule: Q01DX Z (ip), vehicle: saline): 0 of 6

Structure (SMILES): S=P(N1CCOCC1)(N1CC1)N1CC1
- T/C (dose: 7.5 mg/kg/injection, schedule: Q01DX Z (ip), vehicle: carboxymethylcellulose (CMC)): 128 and 141 % of control
- T/C (dose: 10.0 mg/kg/injection, schedule: Q01DX Z (ip), vehicle: carboxymethylcellulose (CMC)): 136 % of control
- T/C (dose: 20.0 mg/kg/injection, schedule: Q01DX010 (ip), vehicle: saline): 135 % of control
- survivor count (dose: 80.0 mg/kg/injection, schedule: Q01DX Z (ip), vehicle: carboxymethylcellulose (CMC)): 6 of 6

Structure (SMILES): C[N+](C)(C)c1ncnc2nc[nH]c12
- survivor count (dose: 60.0 mg/kg/injection, schedule: Q01DX010 (ip), vehicle: saline): 6 of 6
- T/C (dose: 75.0 mg/kg/injection, schedule: Q01DX Z (ip), vehicle: saline): 131 % of control [5 of 6 alive]
- survivor count (dose: 120.0 mg/kg/injection, schedule: Q01DX010 (ip), vehicle: saline): 6 of 6
- T/C (dose: 150.0 mg/kg/injection, schedule: Q01DX Z (ip), vehicle: saline): 130 % of control
- survivor count (dose: 300.0 mg/kg/injection, schedule: Q01DX Z (ip), vehicle: saline): 0 of 6
